According to PubChem BioAssay AID330 (DTP/NCI, 2004):
The list shows only some results of the screen, not a fair sample: it gathers tests that were run many times, whatever their T/C, doses with no T/C, and many T/C values between a quarter and a half above the control. Further doses and runs are listed elsewhere. T/C: endpoint of the treated group in % of that of the vehicle group. Some entries give survivors of the animals treated and no T/C: the source files T/C as zero there, which appears to mark a toxic dose or a test without result, not a measured value. Some survivor counts are full or nearly so, which does not show that the dose was tolerated: survival well below the control is almost never listed, so the zero probably covers shortened survival too. Counts of survivors are from the toxicity check (mostly the fifth day) where no day follows; animals may have died later. Schedule codes are those of the source, taken here to give the interval after Q, in days (D) or hours (H), and the number of doses after X. Some entries hold several experiments; their values stand side by side, smallest first. Marks such as (2×) count equal records among those shown. Where survival is the endpoint, the PubChem record calls one and a half times the control and up active, and a quarter to a half above the control has no call in these data; cut-offs in other NCI protocols can differ. Some T/C values carry the count of animals alive at the toxicity check (mostly the fifth day); without a count, all were alive then. Some schedules carry Z or #; the key to these is not given.

System: P388 leukemia ip, CD2F1 mice, survival T/C
Experiment: NCI In Vivo Anticancer Drug Screen. Data for tumor model P388 Leukemia (intraperitoneal) in CD2F1 (CDF1) mice
Settings: T/C endpoint: median survival time, higher T/C = longer survival
[1] = dose: 200.0 mg/kg/injection, schedule: Q01DX005 (ip), vehicle: Klucel (hydroxypropylcellulose) (HPC)
[2] = dose: 200.0 mg/kg/injection, schedule: Q01DX009 (ip), vehicle: Klucel (hydroxypropylcellulose) (HPC)
[3] = dose: 400.0 mg/kg/injection, schedule: Q01DX001 (ip), vehicle: Klucel (hydroxypropylcellulose) (HPC)
[4] = dose: 400.0 mg/kg/injection, schedule: Q04DX002 (ip), vehicle: Klucel (hydroxypropylcellulose) (HPC)

O=P1(N(CCCl)CCCl)NCCCO1 (centres undefined) was tested, and the T/C (dose: 200.0 mg/kg/injection, schedule: Q01DX001 (ip), vehicle: saline, evaluated on day 35) was 350 % of control, the T/C (dose: 200.0 mg/kg/injection, schedule: Q01DX001 (ip), vehicle: saline, evaluated on day 60) was 208, 229, 242, 300, 534 % of control (2×) and the T/C [1] was 90 and 99 % of control. The survivor count [1] was 1 of 3, 3 of 6, 2 of 3, 4 of 6, 5 of 6, 3 of 3, 6 of 6 (2×), the survivor count (dose: 200.0 mg/kg/injection, schedule: Q01DX005 (ip), vehicle: saline) was 5 of 6 and the T/C [2] was 86 [5 of 6 alive], 93 (2×), 109 % of control. For the same compound, the survivor count [2] was 2 of 3, 4 of 6, 5 of 6 (2×), 3 of 3, 6 of 6, the survivor count (dose: 200.0 mg/kg/injection, schedule: Q01DX009 (ip), vehicle: saline) was 10 of 10 and 6 of 6 and the survivor count (dose: 200.0 mg/kg/injection, schedule: Q01DX009 (ip), vehicle: water) was 6 of 6. For the same compound, the T/C (dose: 200.0 mg/kg/injection, schedule: Q04DX002 (ip), vehicle: Klucel (hydroxypropylcellulose) (HPC)) was 113, 116, 121, 126, 137, 150, 151, 157, 166, 170, 176, 179, 193, 202, 220, 223 (2×), 226 (2×), 232, 243, 245, 247, 255, 259, 260, 269, 270, 271 (3×), 275 (2×), 285, 294 % of control, the T/C (dose: 200.0 mg/kg/injection, schedule: Q04DX003 (ip), vehicle: Klucel (hydroxypropylcellulose) (HPC), evaluated on day 30) was 86, 95, 96, 99, 111, 112, 114 (2×), 115, 117, 119, 123 (2×), 125, 127 (2×), 129, 130, 133 (2×), 136, 137, 139, 140, 142, 144, 155, 163, 169, 174, 199, 236 % of control and the T/C (dose: 200.0 mg/kg/injection, schedule: Q04DX003 (ip), vehicle: Klucel (hydroxypropylcellulose) (HPC), evaluated on day 35) was 162 % of control. For the same compound, the survivor count (dose: 200.0 mg/kg/injection, schedule: Q04DX003 (ip), vehicle: Klucel (hydroxypropylcellulose) (HPC)) was 3 of 3 and 6 of 6, the T/C (dose: 200.0 mg/kg/injection, schedule: Q04DX003 (ip), vehicle: water) was 126 % of control and the T/C (dose: 200.0 mg/kg/injection, schedule: Q## X001 (ip), vehicle: saline) was 95 [9 of 10 alive], 176, 185, 232 % of control [9 of 10 alive]. For the same compound, the T/C (dose: 265.0 mg/kg/injection, schedule: Q01DX001 (ip), vehicle: saline, evaluated on day 45) was 411, 427 [9 of 10 alive], 432, 450 % of control (2×), the T/C (dose: 265.0 mg/kg/injection, schedule: Q01DX001 (ip), vehicle: saline, evaluated on day 60) was 540, 560, 566 (2×), 571, 576 % of control and the T/C (dose: 267.0 mg/kg/injection, schedule: Q01DX001 (ip), vehicle: water) was 127 % of control. For the same compound, the T/C (dose: 300.0 mg/kg/injection, schedule: Q01DX001 (ip), vehicle: saline, evaluated on day 5) was 252, 270, 275, 279 % of control, the T/C (dose: 300.0 mg/kg/injection, schedule: Q01DX001 (ip), vehicle: saline, evaluated on day 9) was 70, 90, 98, 110, 159, 247, 263, 266, 294, 355 % of control and the T/C (dose: 300.0 mg/kg/injection, schedule: Q01DX001 (ip), vehicle: saline, evaluated on day 11) was 311 % of control. The T/C (dose: 300.0 mg/kg/injection, schedule: Q01DX001 (ip), vehicle: saline, evaluated on day 30) was 168 % of control, the T/C (dose: 300.0 mg/kg/injection, schedule: Q01DX001 (ip), vehicle: saline, evaluated on day 60) was 252, 533, 535, 560 % of control and the survivor count (dose: 300.0 mg/kg/injection, schedule: Q04DX003 (ip), vehicle: saline) was 8 of 8. For the same compound, the T/C (dose: 300.0 mg/kg/injection, schedule: Q## X001 (ip), vehicle: saline) was 98, 110, 159, 247 [9 of 10 alive], 266, 275, 294 % of control, the T/C [3] was 90 [2 of 3 alive], 92 [2 of 3 alive], 105, 107 [5 of 6 alive], 115, 117, 117 [5 of 6 alive], 152, 153, 160 [5 of 6 alive], 169, 200, 254 [2 of 3 alive], 260 [5 of 6 alive], 267, 272, 280, 286 [2 of 3 alive], 287, 288 % of control and the survivor count [3] was 0 of 3, 1 of 3, 2 of 6, 3 of 6, 2 of 3, 5 of 6, 3 of 3, 6 of 6 (2×). For the same compound, the T/C (dose: 400.0 mg/kg/injection, schedule: Q01DX001 (ip), vehicle: saline, evaluated on day 5) was 125 and 300 % of control, the T/C (dose: 400.0 mg/kg/injection, schedule: Q01DX001 (ip), vehicle: saline, evaluated on day 10) was 181 % of control and the T/C (dose: 400.0 mg/kg/injection, schedule: Q01DX001 (ip), vehicle: saline, evaluated on day 21) was 194 % of control. The T/C (dose: 400.0 mg/kg/injection, schedule: Q01DX001 (ip), vehicle: saline, evaluated on day 30) was 89, 90 [5 of 6 alive], 123, 140 [4 of 6 alive], 162 [5 of 6 alive], 171, 220 [5 of 6 alive], 232, 257, 265, 277, 283 [5 of 6 alive], 285 [5 of 6 alive], 294 (2×), 297, 300 (2×), 303, 309 % of control, the T/C (dose: 400.0 mg/kg/injection, schedule: Q01DX001 (ip), vehicle: saline, evaluated on day 35) was 163 % of control and the T/C (dose: 400.0 mg/kg/injection, schedule: Q01DX001 (ip), vehicle: saline, evaluated on day 60) was 174 and 550 % of control. For the same compound, the survivor count (dose: 400.0 mg/kg/injection, schedule: Q01DX001 (ip), vehicle: saline) was 0 of 6, 3 of 6, 4 of 6, 5 of 6, 6 of 6, the T/C (dose: 400.0 mg/kg/injection, schedule: Q01DX001 (ip), vehicle: water, evaluated on day 6) was 147 % of control and the T/C (dose: 400.0 mg/kg/injection, schedule: Q01DX001 (ip), vehicle: water, evaluated on day 10) was 109 % of control. The T/C (dose: 400.0 mg/kg/injection, schedule: Q01DX001 (ip), vehicle: water, evaluated on day 30) was 125 [4 of 6 alive] and 291 % of control, the survivor count (dose: 400.0 mg/kg/injection, schedule: Q01DX009 (ip), vehicle: saline) was 3 of 6 and the T/C [4] was 86 [4 of 6 alive], 90 (2×), 92, 93, 102, 109, 114, 129, 203, 236, 270 % of control. For the same compound, the survivor count [4] was 1 of 3, 3 of 6, 2 of 3, 4 of 6, 5 of 6, 3 of 3, 6 of 6, the T/C (dose: 400.0 mg/kg/injection, schedule: Q04DX003 (ip), vehicle: Klucel (hydroxypropylcellulose) (HPC), evaluated on day 30) was 86, 88, 92, 100 % of control and the T/C (dose: 400.0 mg/kg/injection, schedule: Q04DX003 (ip), vehicle: Klucel (hydroxypropylcellulose) (HPC), evaluated on day 35) was 93 % of control [5 of 6 alive]. The survivor count (dose: 400.0 mg/kg/injection, schedule: Q04DX003 (ip), vehicle: Klucel (hydroxypropylcellulose) (HPC)) was 1 of 3, 3 of 6, 2 of 3, 4 of 6, 5 of 6, 3 of 3, 6 of 6 and the survivor count (dose: 500.0 mg/kg/injection, schedule: Q01DX001 (iv), vehicle: saline) was 1 of 6.
